Laboratory results from paper PMC7819943, “Rice protein-binding microarrays: a tool to detect cis-acting elements near promoter regions in rice”.
The list shows a part of the results.

What follows are sequences tested against T1, OsSMF1 (Oryza sativa, UniProt Q6ZLB0 1-436) (assay: protein-binding microarray (RPBM); PBS, 2% BSA, 51.3 ng/ul salmon testes DNA, 50 uM zinc acetate, 200 nM TF, 25 C, 1 h; high values mean tight binding). Conditions: protein: recombinant; tags: N-terminal polyhistidine and DsRed monomer fusion (pET32a); chain copies: 2; label: CyDye5-dUTP incorporated in the synthesized complementary strand; 3' TTTTT single-stranded linker to array surface; dsDNA, one strand shown.
T1 sequence: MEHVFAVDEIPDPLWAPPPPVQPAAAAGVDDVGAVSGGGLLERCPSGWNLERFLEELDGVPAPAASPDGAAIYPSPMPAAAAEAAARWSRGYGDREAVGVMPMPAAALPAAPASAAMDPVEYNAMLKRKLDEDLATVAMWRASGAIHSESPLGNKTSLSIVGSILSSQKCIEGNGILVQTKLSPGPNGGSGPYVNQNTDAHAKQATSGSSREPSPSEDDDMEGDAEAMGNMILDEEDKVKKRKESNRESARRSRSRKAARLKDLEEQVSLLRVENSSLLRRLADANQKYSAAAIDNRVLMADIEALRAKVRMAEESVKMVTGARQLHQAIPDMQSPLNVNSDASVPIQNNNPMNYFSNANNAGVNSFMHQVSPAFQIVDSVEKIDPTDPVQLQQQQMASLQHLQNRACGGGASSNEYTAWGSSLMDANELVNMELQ
Outline: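 Transcription factors, each fused N-terminally to a polyhistidine tag and DsRed, were expressed in E. coli BL21-CodonPlus and purified on Ni–NTA. A custom Agilent array was made double-stranded by primer extension with Cy5-dUTP and blocked with 2% BSA. It was incubated with 200 nM protein in PBS, 2% BSA, salmon testes DNA and 50 µM zinc acetate at 25 °C for 1 h, then washed. The binding signal is per-feature fluorescence intensity (arbitrary units) read on an Axon 4000B scanner.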

Compared with “CGTGCATCCGCTTGTGCTGCCACTTCGACAGCCCGCCCGGCGGAGTCACCTAGTGCAG”, “CTCTCGCCGCCACCCCGGCCCGCGCGCGCAAGCAACCTTACGGAGTCACCTAGTGCAG” is higher in binding signal: 3570 fluorescence intensity (a.u.) for the first, 3890 fluorescence intensity (a.u.) for the second.

First: TGGGACCCACGCTGAGCCAGCTGCCACGTCAGATAAAACCCGGAGTCACCTAGTGCAG
Second: ATAAAAGATGCTGACATTATATCAGTCGTGCAGCATGGAACGGAGTCACCTAGTGCAG
The binding signal of the first is higher: 16500 fluorescence intensity (a.u.) for the first, 3390 fluorescence intensity (a.u.) for the second.

Compared with “AGGCGGCGCGGGCGCTGCTCGTCATCAACGACTACTTCTCCGGAGTCACCTAGTGCAG”, “GCTGCCAGCGCCGCCGCCACCTGTGTCGGCACGCGAGCGCCGGAGTCACCTAGTGCAG” is lower in binding signal: 4130 fluorescence intensity (a.u.) for the first, 3350 fluorescence intensity (a.u.) for the second.

Compared with “ATCGCCGTCGGCGCCTTCCTCTGGGCCGCCGCCACGCTCCCGGAGTCACCTAGTGCAG”, “GCACCGGCGGCGTGTGTGAATGTGTCACGGCTGCGACGCACGGAGTCACCTAGTGCAG” is lower in binding signal: 23400 fluorescence intensity (a.u.) for the first, 3660 fluorescence intensity (a.u.) for the second.

Going from “TTCTTACGGGCAATGGCTAACGATATGCGATGACATGTTGCGGAGTCACCTAGTGCAG” to “GAATTCCAATCAGAGACACGTCCATGTTCCATCATCGCCCCGGAGTCACCTAGTGCAG”, the binding signal rises from 4020 fluorescence intensity (a.u.) to 5070 fluorescence intensity (a.u.).

First: AGCCGGATCACCAGGAGGCGGGGACGGGGATGGCCGTCATCGGAGTCACCTAGTGCAG
Second: GTTATGGGTTTCATTTACCAGCCACCTCTTAGTCCACACCCGGAGTCACCTAGTGCAG
The binding signal of the first is higher: 3960 fluorescence intensity (a.u.) for the first, 3910 fluorescence intensity (a.u.) for the second.

Going from “GTCTCACTGACAGGTGGGACCCACGGCGCAGCGTCACGCGCGGAGTCACCTAGTGCAG” to “GAGGCCGGGCACTGCCACGCAGGTCATCCGCTCATCTACCCGGAGTCACCTAGTGCAG”, the binding signal falls from 4470 fluorescence intensity (a.u.) to 3910 fluorescence intensity (a.u.).

Going from “GTCTGAAGTTCTTTCTCAAATGACAACCTCATTATCATGGCGGAGTCACCTAGTGCAG” to “GCGTACGCCGCGGCCGCCAAGTGGTGGCCAGCGGCGCCGCCGGAGTCACCTAGTGCAG”, the binding signal rises from 3520 fluorescence intensity (a.u.) to 4580 fluorescence intensity (a.u.).

Going from “CGCCTCCACGGCGCCCACGCTCATCGCCACCATCCACGACCGGAGTCACCTAGTGCAG” to “TGAGCGCATCCGCCTCCTGGTGACGTTTGCTCTGACGCGTCGGAGTCACCTAGTGCAG”, the binding signal rises from 3700 fluorescence intensity (a.u.) to 8530 fluorescence intensity (a.u.).

Compared with “CGCCGCAAGCACCAAAACCCAGATGACGCTGTGCTCGCCGCGGAGTCACCTAGTGCAG”, “CATGGCTAGCTGGTTGCACGCAGTGACGTACTACAATAGACGGAGTCACCTAGTGCAG” is higher in binding signal: 3450 fluorescence intensity (a.u.) for the first, 3910 fluorescence intensity (a.u.) for the second.

Compared with “GGCGGGGAGCCGTACACCAGCGTCAGCCCCAATCGCGGCACGGAGTCACCTAGTGCAG”, “AGCAGCGTGATATGACGATCTATTTGTCCACTCCATATTGCGGAGTCACCTAGTGCAG” is lower in binding signal: 4470 fluorescence intensity (a.u.) for the first, 3260 fluorescence intensity (a.u.) for the second.

Compared with “CATTGGAATTGATGATCACATTATACATGGATTTGACCCACGGAGTCACCTAGTGCAG”, “GCCTCCCCATCGCGCTGCCACCTCCGCCTCCCGCCGTCCCCGGAGTCACCTAGTGCAG” is higher in binding signal: 3300 fluorescence intensity (a.u.) for the first, 3920 fluorescence intensity (a.u.) for the second.

Compared with “ACGGGCTCGTCGAGCTGCTCTGGTGCAATGGCCACGTCATCGGAGTCACCTAGTGCAG”, “CCAAAACACACATCATTTTCTAGGACTTGAAATTAAGTTCCGGAGTCACCTAGTGCAG” is lower in binding signal: 28400 fluorescence intensity (a.u.) for the first, 13600 fluorescence intensity (a.u.) for the second.

Compared with “CGGGATGCGGAGGACACGTCGACTCTGCGCACCCGCTTTTCGGAGTCACCTAGTGCAG”, “CTGGCATTGACACGGTACGCGTCATCGACGGTAGACCGCGCGGAGTCACCTAGTGCAG” is lower in binding signal: 7970 fluorescence intensity (a.u.) for the first, 7840 fluorescence intensity (a.u.) for the second.

First: GGTGGTGTTGTTGGTGGTGCAGTTCTTGGAGTCACATGGTCGGAGTCACCTAGTGCAG
Second: GTTTCCCAAATCATCAAAGAAGGTGATTTGCATCGATCTTCGGAGTCACCTAGTGCAG
The binding signal of the first is higher: 3850 fluorescence intensity (a.u.) for the first, 3170 fluorescence intensity (a.u.) for the second.

First: TTTATTAATATATATATATATATATATATATATATATATACGGAGTCACCTAGTGCAG
Second: TCGACCCGCCCTCCCCGTCGACGAGCTCCAGCGCGGCGCCCGGAGTCACCTAGTGCAG
The binding signal of the first is higher: 7400 fluorescence intensity (a.u.) for the first, 4320 ± 159 fluorescence intensity (a.u.) for the second.

Compared with “TCACTGTCACACATGATGACCCCGCTCACATCATCACTTACGGAGTCACCTAGTGCAG”, “ACCTACTAATAACTAGTTAATTGTCTATTGTGCCCCTAGTCGGAGTCACCTAGTGCAG” is higher in binding signal: 4160 fluorescence intensity (a.u.) for the first, 13700 fluorescence intensity (a.u.) for the second.

Going from “TGTCCATGGTTTGTTGCTGCTGCGGTGGCACCAGTGCTGCCGGAGTCACCTAGTGCAG” to “CTATACTATTAATATATGGTCCCACCTGTCATATACACAGCGGAGTCACCTAGTGCAG”, the binding signal falls from 7940 fluorescence intensity (a.u.) to 3360 fluorescence intensity (a.u.).

Going from “GAGCATGAGCGAACATCGATGAAGGATGAAAATTGTAGGGCGGAGTCACCTAGTGCAG” to “CCGTCCCCGTCGAGTCGCCGTGTCCGACGCCTTCGCCTCCCGGAGTCACCTAGTGCAG”, the binding signal falls from 4260 fluorescence intensity (a.u.) to 3740 fluorescence intensity (a.u.).

First: TCTTCTTGCTATGTGTGCTCTCTACATTTGCTGCCGTGGACGGAGTCACCTAGTGCAG
Second: GAGATTCTCGTCTGTTTAGTTGATCTGATCTGACAATTTGCGGAGTCACCTAGTGCAG
The binding signal of the first is higher: 30700 fluorescence intensity (a.u.) for the first, 3500 fluorescence intensity (a.u.) for the second.

Compared with “TTGAAAGTATGATTCCAAGAAACAATTCTTATGTTACATTCGGAGTCACCTAGTGCAG”, “TGCTTCGTCTTCCACTGCAGCTGACTCACATGGCCAAACACGGAGTCACCTAGTGCAG” is lower in binding signal: 28400 fluorescence intensity (a.u.) for the first, 8760 fluorescence intensity (a.u.) for the second.
